Measurements taken from publication PMC11148166.
Results are given in words; binding and its absence hold for the method and conditions named. Binding seen in cells or lysates may run through a third protein. These calls come from enrichment with a bait or labelling near it, and not all partners need be listed. Tags and fused reporters may be left off the sequences shown.

The chains behind the UniProt entries cited, without tags or fusion partners.
UniProt Q8CHI8: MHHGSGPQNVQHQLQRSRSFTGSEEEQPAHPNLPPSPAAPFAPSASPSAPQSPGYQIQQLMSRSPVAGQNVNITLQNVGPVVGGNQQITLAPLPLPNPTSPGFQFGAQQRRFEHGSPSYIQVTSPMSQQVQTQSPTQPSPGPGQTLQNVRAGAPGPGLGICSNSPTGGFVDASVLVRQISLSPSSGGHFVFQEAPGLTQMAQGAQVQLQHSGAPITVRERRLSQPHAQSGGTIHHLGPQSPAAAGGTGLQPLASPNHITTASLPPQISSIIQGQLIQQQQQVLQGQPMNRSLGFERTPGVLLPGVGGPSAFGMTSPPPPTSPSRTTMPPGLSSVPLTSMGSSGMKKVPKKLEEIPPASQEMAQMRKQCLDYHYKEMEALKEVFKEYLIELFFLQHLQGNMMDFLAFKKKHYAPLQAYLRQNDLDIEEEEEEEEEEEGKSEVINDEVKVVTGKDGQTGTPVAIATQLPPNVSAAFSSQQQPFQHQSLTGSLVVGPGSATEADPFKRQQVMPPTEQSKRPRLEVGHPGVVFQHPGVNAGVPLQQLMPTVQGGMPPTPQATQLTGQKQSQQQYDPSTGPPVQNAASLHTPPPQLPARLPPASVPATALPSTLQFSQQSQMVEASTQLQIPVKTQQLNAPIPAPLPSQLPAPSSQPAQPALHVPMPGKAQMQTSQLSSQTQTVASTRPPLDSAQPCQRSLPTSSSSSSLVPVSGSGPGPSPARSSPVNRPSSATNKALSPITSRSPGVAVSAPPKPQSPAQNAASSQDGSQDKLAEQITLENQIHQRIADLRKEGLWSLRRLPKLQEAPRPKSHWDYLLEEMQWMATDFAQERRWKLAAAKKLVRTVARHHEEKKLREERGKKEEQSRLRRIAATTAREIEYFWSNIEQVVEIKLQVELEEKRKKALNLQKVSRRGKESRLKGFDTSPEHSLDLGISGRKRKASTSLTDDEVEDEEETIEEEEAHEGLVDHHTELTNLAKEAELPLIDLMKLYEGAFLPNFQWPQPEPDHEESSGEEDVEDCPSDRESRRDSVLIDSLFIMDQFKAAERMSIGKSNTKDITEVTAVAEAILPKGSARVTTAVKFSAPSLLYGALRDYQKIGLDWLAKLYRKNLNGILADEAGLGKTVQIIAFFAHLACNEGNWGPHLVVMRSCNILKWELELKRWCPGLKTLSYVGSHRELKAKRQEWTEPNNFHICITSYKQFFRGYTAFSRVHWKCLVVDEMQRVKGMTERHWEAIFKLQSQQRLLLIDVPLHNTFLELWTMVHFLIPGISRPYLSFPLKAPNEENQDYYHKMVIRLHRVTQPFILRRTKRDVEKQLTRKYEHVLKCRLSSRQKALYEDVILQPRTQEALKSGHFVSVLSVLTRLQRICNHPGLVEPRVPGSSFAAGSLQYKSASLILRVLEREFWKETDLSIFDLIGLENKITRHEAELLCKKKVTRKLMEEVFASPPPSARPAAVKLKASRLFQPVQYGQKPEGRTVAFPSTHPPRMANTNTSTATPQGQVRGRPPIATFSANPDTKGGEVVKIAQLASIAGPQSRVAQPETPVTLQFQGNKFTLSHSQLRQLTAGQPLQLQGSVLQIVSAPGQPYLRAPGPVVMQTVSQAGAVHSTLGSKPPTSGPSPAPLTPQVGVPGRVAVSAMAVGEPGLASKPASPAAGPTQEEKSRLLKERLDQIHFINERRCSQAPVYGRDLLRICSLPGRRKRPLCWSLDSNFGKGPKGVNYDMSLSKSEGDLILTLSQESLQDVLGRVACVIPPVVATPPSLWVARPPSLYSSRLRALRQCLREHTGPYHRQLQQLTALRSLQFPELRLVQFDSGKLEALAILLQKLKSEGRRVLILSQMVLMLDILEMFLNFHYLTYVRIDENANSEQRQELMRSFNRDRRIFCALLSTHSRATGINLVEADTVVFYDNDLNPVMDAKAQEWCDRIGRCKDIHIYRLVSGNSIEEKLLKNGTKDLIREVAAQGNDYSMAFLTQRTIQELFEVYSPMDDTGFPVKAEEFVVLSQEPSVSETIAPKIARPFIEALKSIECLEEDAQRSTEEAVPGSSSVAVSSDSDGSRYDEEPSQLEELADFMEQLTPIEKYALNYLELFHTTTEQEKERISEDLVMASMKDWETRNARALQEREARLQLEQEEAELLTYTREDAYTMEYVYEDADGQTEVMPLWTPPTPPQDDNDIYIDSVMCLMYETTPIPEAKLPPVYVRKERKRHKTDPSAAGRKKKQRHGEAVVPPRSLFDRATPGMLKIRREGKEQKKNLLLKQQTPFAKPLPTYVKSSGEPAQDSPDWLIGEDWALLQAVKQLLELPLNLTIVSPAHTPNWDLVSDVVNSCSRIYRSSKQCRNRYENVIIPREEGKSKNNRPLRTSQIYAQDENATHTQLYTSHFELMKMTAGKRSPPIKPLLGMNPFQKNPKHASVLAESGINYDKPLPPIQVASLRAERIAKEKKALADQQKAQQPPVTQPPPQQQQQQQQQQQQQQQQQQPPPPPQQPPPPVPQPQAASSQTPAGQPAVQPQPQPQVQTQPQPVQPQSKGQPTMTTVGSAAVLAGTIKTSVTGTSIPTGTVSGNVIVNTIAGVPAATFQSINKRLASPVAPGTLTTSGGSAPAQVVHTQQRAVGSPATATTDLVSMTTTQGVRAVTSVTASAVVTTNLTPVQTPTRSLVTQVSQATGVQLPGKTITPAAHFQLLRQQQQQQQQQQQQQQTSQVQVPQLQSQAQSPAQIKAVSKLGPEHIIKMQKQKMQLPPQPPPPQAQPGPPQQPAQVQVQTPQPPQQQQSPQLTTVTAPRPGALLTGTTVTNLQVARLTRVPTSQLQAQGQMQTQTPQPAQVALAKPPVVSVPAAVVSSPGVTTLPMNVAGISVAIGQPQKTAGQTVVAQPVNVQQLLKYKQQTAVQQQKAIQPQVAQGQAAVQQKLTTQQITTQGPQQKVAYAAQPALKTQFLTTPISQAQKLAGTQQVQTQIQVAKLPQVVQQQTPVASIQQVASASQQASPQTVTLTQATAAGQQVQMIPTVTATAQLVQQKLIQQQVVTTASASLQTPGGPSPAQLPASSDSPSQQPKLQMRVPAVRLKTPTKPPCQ
UniProt Q8BX17: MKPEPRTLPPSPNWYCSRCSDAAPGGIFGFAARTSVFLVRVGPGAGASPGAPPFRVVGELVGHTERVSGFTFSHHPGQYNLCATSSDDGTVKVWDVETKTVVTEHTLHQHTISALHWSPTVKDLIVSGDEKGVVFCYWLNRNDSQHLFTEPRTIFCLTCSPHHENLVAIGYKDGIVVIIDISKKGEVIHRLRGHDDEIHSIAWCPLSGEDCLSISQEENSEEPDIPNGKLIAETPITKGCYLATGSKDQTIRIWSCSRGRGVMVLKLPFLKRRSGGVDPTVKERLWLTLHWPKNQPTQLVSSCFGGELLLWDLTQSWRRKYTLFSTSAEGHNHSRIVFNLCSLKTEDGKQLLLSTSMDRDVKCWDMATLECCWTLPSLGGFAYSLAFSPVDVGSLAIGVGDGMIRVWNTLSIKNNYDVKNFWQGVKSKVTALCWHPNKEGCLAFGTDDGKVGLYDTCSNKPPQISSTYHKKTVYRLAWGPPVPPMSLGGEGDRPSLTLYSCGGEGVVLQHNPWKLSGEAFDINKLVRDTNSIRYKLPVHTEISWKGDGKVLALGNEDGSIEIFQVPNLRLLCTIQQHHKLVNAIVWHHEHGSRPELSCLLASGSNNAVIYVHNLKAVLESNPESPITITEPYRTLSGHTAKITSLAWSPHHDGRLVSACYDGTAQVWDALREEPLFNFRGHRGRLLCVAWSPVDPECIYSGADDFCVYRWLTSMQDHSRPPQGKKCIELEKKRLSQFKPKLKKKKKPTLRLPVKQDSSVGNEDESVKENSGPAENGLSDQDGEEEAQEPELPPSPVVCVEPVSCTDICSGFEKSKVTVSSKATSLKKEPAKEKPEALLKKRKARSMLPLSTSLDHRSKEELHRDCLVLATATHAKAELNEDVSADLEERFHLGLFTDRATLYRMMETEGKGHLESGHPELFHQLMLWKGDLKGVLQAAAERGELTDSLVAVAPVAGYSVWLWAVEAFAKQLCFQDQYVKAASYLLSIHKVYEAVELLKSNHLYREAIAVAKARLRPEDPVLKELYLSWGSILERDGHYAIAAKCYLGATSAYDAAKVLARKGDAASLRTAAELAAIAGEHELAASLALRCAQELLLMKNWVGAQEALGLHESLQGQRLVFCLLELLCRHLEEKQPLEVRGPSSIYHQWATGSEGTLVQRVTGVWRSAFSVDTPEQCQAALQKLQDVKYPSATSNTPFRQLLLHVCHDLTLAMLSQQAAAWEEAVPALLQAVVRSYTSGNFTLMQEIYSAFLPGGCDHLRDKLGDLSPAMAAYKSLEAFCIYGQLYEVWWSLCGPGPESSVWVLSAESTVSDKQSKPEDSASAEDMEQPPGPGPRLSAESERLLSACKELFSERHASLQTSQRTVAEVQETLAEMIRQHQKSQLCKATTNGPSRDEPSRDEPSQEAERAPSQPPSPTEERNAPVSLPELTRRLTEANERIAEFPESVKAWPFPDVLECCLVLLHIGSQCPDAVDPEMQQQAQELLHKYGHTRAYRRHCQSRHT
UniProt Q8CHK4: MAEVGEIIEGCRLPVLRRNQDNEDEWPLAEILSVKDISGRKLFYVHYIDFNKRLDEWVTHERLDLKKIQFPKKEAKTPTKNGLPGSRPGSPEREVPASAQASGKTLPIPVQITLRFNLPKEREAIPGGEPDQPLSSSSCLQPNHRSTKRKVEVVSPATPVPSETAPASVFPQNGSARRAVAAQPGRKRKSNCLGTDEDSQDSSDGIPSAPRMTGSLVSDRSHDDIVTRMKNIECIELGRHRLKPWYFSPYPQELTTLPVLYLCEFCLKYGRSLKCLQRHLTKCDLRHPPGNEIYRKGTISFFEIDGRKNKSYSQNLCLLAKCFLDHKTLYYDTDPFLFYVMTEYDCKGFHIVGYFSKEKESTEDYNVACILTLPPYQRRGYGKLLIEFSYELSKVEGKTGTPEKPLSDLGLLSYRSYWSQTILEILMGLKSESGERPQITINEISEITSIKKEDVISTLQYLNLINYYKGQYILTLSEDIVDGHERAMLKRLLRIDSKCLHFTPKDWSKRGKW
UniProt Q62481: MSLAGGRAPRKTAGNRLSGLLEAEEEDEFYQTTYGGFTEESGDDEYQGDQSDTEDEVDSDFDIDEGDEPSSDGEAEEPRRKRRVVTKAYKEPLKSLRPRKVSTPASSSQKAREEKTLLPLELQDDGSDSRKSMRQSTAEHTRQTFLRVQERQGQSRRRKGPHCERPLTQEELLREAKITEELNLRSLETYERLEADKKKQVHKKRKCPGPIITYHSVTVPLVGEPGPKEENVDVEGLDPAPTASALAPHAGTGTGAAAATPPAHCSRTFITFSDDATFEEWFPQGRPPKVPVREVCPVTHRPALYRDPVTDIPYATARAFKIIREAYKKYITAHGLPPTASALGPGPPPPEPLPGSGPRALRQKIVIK

Each substance was assayed against T1, STAT1-TurboID-V5 (mouse) (UniProt P42225) (assay: proximity labelling; TurboID; STAT1-TurboID-V5 (STAT1-BirA*) in Stat1-/- RAW 264.7 cells, Dox 24 h, untreated or IFNβ or IFNγ 3 h, 500 µM biotin 10 min; nuclear extracts, streptavidin beads, mass spectrometry; log2FC >= 1 above BirA*-NLS control, Padj <0.05).
T1 sequence: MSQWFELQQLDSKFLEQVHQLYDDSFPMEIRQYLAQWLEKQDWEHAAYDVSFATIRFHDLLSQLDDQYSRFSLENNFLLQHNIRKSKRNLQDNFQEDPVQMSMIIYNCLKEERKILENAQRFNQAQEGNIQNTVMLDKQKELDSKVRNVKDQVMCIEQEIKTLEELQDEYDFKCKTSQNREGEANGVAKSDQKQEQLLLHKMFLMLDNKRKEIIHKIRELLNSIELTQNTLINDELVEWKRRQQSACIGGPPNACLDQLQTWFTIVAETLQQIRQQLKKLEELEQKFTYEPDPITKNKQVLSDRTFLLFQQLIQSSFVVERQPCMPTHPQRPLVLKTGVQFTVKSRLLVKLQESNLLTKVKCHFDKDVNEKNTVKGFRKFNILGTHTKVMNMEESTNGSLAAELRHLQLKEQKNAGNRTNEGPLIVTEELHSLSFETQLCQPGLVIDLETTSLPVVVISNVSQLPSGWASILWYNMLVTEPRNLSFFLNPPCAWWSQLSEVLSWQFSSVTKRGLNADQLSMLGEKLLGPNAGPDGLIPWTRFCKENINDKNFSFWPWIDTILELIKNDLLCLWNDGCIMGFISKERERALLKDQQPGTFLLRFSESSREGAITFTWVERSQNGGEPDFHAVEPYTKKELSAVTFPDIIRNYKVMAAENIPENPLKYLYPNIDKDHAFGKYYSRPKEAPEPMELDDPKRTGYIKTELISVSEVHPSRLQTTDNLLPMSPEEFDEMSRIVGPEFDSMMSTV

Substance	binding
AHNAK (from UniProt E9Q616 1-5656)	binds
Al607873 (mouse (endogenous in RAW 264.7))	binds
EP400 (from UniProt Q8CHI8 1-3072)	binds
Gemin5 (from UniProt Q8BX17 1-1502)	binds
KAT5 (from UniProt Q8CHK4 1-513)	binds
Parp14 (from UniProt Q2EMV9 1-1817)	binds
VPS72 (from UniProt Q62481 1-368)	binds
